# Measurements taken from paper PMC7819943, “Rice protein-binding microarrays: a tool to detect cis-acting elements near promoter regions in rice”.
# Chains of the proteins cited; added tags and fusions are not shown.
# UniProt Q0JBA9, entry or part of it: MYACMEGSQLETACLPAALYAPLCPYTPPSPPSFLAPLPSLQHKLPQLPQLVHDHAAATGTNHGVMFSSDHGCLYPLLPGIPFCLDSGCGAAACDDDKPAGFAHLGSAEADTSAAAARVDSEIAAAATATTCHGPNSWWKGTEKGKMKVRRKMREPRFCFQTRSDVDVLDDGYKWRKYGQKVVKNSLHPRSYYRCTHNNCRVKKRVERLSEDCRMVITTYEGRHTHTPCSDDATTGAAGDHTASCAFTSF
# Some of the results follow.
# Molecular target: OsWRKY34 (Oryza sativa, UniProt Q0JBA9 1-250)
# Assay: protein-binding microarray (RPBM); PBS, 2% BSA, 51.3 ng/ul salmon testes DNA, 50 uM zinc acetate, 200 nM TF, 25 C, 1 h; high values mean tight binding
# Details: protein: recombinant; tags: N-terminal polyhistidine and DsRed monomer fusion (pET32a); label: CyDye5-dUTP incorporated in the synthesized complementary strand; 3' TTTTT single-stranded linker to array surface; dsDNA, one strand shown
# In short: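 An Axon 4000B scanner gave the binding signal as per-feature fluorescence intensity in arbitrary units. This followed washing of a custom Agilent array that had been incubated for 1 h at 25 °C with 200 nM protein in PBS, 2% BSA, salmon testes DNA and 50 µM zinc acetate. The proteins were transcription factors fused at the N-terminus to polyhistidine and DsRed, expressed in E. coli BL21-CodonPlus and purified on Ni–NTA.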
row,Sequence,binding signal
1,AACACAGCCTACATTTCTGGCGAAATTTGTTACGTGACATCGGAGTCACCTAGTGCAG,8090 fluorescence intensity (a.u.)
2,ATGTCACCAAGCGGTATAGGTCTGAATGTATTGATGTGCCCGGAGTCACCTAGTGCAG,9370 fluorescence intensity (a.u.)
3,TGTGGATGAGTGTGTGTGTGTGGAGATCAGTGGGAGACCACGGAGTCACCTAGTGCAG,8170 fluorescence intensity (a.u.)
4,ACCCGCCGTCTGCCACGTCAGCTTGCCGCCCACCATTAGACGGAGTCACCTAGTGCAG,8040 fluorescence intensity (a.u.)
5,GTGCACCACCCGCCGCCCACCGTCGACCTCGCCGCCAACCCGGAGTCACCTAGTGCAG,10400 fluorescence intensity (a.u.)
6,TCTAGCCCGATCGTAACATTAGGTATCAGAGCCACCAATCCGGAGTCACCTAGTGCAG,9190 fluorescence intensity (a.u.)
7,TTCGGTTTTTCTCTTCATCATTTCTCTTTATTTCTTTCTCCGGAGTCACCTAGTGCAG,9290 fluorescence intensity (a.u.)
8,TCATGTTACCAAACAAATCCGGAATTTCTCTTTCTACACACGGAGTCACCTAGTGCAG,9620 fluorescence intensity (a.u.)
9,TAGCCCGGCCGCACAAGTCGCCACCACCACCACCGCACCCCGGAGTCACCTAGTGCAG,10400 fluorescence intensity (a.u.)
10,TTTCTAGATGTCTACGCGTTATCAGCATGTTGATGTCTACCGGAGTCACCTAGTGCAG,8460 fluorescence intensity (a.u.)
11,ATAGTTGGTGTGTTTATGTAGACTTATTCTATTTTGACGTCGGAGTCACCTAGTGCAG,10400 fluorescence intensity (a.u.)
12,GGGTCAGAGGGTAGGTTATTGTTGGGTAGGTGTGGAATTGCGGAGTCACCTAGTGCAG,9800 fluorescence intensity (a.u.)
13,CTACTGGGTGGTGTCTGGCGGGGATGTGCTCGAGCAAGATCGGAGTCACCTAGTGCAG,9900 fluorescence intensity (a.u.)
14,TAGTTGACCGTGTATTTTCTATAAAAATGACCATTTTACCCGGAGTCACCTAGTGCAG,8310 fluorescence intensity (a.u.)
15,GTTACTACTGCTTTTGTGGTCTCTTATTCTTCTTATTATTCGGAGTCACCTAGTGCAG,8660 fluorescence intensity (a.u.)
16,GCCCAAGACCTTGCTCCATCTCTTGCCATCAGCCCGAGACCGGAGTCACCTAGTGCAG,8150 fluorescence intensity (a.u.)
17,GCCACAATATTCTTTGCATCTGCATATTCTTTTCTCTGTTCGGAGTCACCTAGTGCAG,8090 fluorescence intensity (a.u.)
18,CTGCACGTTCATAATCATAAACTAATTTTGGCCCATTTGCCGGAGTCACCTAGTGCAG,8870 fluorescence intensity (a.u.)
19,TTGTGGACCAGTGTGTTGGCGGCCTCCTTCCAAGTGGTGTCGGAGTCACCTAGTGCAG,8210 fluorescence intensity (a.u.)
20,GTGCTTCTGCTTCGTAGTTAAGCTTTTCTAGTTTTATTTTCGGAGTCACCTAGTGCAG,8720 fluorescence intensity (a.u.)
21,GCTTACCTTACAGTGATGGTTCTATGTCAAAGCTGTGGGGCGGAGTCACCTAGTGCAG,8910 fluorescence intensity (a.u.)

row,Sequence,binding signal
1,ACGTCCACCTCCGCATCGGCCCCTACGTCTGCGCCGAGTGCGGAGTCACCTAGTGCAG,8340 fluorescence intensity (a.u.)
2,GGATGGCCACGCTTTCCTCGCCCGCGCGCTTTGACCAAACCGGAGTCACCTAGTGCAG,13900 fluorescence intensity (a.u.)
3,TTTTCTGCACACGCTTCCCAAATCGTTAAATTGTGTGTTTCGGAGTCACCTAGTGCAG,10300 fluorescence intensity (a.u.)
4,TCCACACTCATAAGGGGATAGTCTCTCAGGTGCATTTTTTCGGAGTCACCTAGTGCAG,9040 fluorescence intensity (a.u.)
5,CTTTGTATCTGACCTACTGTTGTTCTGACCAGTCTTGGCCCGGAGTCACCTAGTGCAG,9890 fluorescence intensity (a.u.)
6,TCACATTTCAGTTTAGGGGAGTTGGTGGTAGGAGTGCAGACGGAGTCACCTAGTGCAG,8490 fluorescence intensity (a.u.)
7,ACCATTGGCCTCGCCGCTCACGCGCACCAGCGTCCCACACCGGAGTCACCTAGTGCAG,10500 fluorescence intensity (a.u.)
8,CCGCCGAACCACCGCCATCTCCCGTGTTCTTGTACCAAACCGGAGTCACCTAGTGCAG,8780 fluorescence intensity (a.u.)
9,GATCAGATCACGTGCCTATGCAGAGCATCTTCTTGGTTCTCGGAGTCACCTAGTGCAG,8450 fluorescence intensity (a.u.)
10,CAATCACGCCCATTTCCATTTCCAGCTGCTGCATCCACCTCGGAGTCACCTAGTGCAG,8750 fluorescence intensity (a.u.)
11,TCAAACGTTTATCAAAAAGTCAACGGCGTCATACATTAAACGGAGTCACCTAGTGCAG,11100 fluorescence intensity (a.u.)
12,GTTTTCCCGTATTAAAAGCCTACCTACCCACATAAATCCACGGAGTCACCTAGTGCAG,8830 fluorescence intensity (a.u.)
13,CAGTCGAGTCATTGGGCCGGGCCCATATCTTTCTTCTAAACGGAGTCACCTAGTGCAG,8110 fluorescence intensity (a.u.)
14,ACCTAATATTTCCCGTGTTCTCTTCTACGAAAACGTATTTCGGAGTCACCTAGTGCAG,10500 fluorescence intensity (a.u.)
15,CACTTCCCTTAACTAGTGTATCATTTCCGTTTTCACGCATCGGAGTCACCTAGTGCAG,8500 fluorescence intensity (a.u.)
16,ACCCATCCATCCCTAGCTTCCTCGCTGCTTCGCCCGCCACCGGAGTCACCTAGTGCAG,9110 fluorescence intensity (a.u.)
17,GCGTCTTGGTGTATATTTGAATATTTCACTCTATTTTTATCGGAGTCACCTAGTGCAG,9490 fluorescence intensity (a.u.)
18,CTCGAGGCGCCGCCCAATTCGTTCCTCCACGATTTCTTTTCGGAGTCACCTAGTGCAG,9650 fluorescence intensity (a.u.)
19,CACCATCATTGTCATCAGAAACTGCTCTTCTTTCATGTATCGGAGTCACCTAGTGCAG,9430 fluorescence intensity (a.u.)
20,GCCCAGTTCCTAGTTGCTTCTCTCTCCCTCATTAATAAAACGGAGTCACCTAGTGCAG,9380 fluorescence intensity (a.u.)
21,AACATTTCTCTATACACCACTTTCAGGCATTTGCTGTTTTCGGAGTCACCTAGTGCAG,13000 fluorescence intensity (a.u.)

# Retrieved one by one from the entries so far:
row,Sequence,binding signal
7,ACCATTGGCCTCGCCGCTCACGCGCACCAGCGTCCCACACCGGAGTCACCTAGTGCAG,10500 fluorescence intensity (a.u.)
3,TTTTCTGCACACGCTTCCCAAATCGTTAAATTGTGTGTTTCGGAGTCACCTAGTGCAG,10300 fluorescence intensity (a.u.)
11,TCAAACGTTTATCAAAAAGTCAACGGCGTCATACATTAAACGGAGTCACCTAGTGCAG,11100 fluorescence intensity (a.u.)
